# Measured values: PMC7819943, “Rice protein-binding microarrays: a tool to detect cis-acting elements near promoter regions in rice”
# Sequences of proteins named here, by UniProt entry; tags and fusion partners are left off.
# UniProt Q0JBA9, entry or part of it: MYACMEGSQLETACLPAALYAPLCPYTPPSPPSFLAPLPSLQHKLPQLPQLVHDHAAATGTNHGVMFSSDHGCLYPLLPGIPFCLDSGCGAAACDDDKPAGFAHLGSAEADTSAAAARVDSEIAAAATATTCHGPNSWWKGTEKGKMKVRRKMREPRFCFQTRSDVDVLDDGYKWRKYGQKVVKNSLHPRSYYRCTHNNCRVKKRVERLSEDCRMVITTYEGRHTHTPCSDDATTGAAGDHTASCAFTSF
# This is one part of the list.
# Biological target: OsWRKY34 (Oryza sativa, UniProt Q0JBA9 1-250)
# Assay: protein-binding microarray (RPBM); PBS, 2% BSA, 51.3 ng/ul salmon testes DNA, 50 uM zinc acetate, 200 nM TF, 25 C, 1 h; high values mean tight binding
# Settings: protein: recombinant; tags: N-terminal polyhistidine and DsRed monomer fusion (pET32a); label: CyDye5-dUTP incorporated in the synthesized complementary strand; 3' TTTTT single-stranded linker to array surface; dsDNA, one strand shown
# Summary of the method: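 An Axon 4000B scanner gave the binding signal as per-feature fluorescence intensity in arbitrary units. This followed washing of a custom Agilent array that had been incubated for 1 h at 25 °C with 200 nM protein in PBS, 2% BSA, salmon testes DNA and 50 µM zinc acetate. The proteins were transcription factors fused at the N-terminus to polyhistidine and DsRed, expressed in E. coli BL21-CodonPlus and purified on Ni–NTA.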
row,Sequence,binding signal
1,CCCCACCACCGCGCCTGAATTTTTTCCTTTGCACTGGCGCCGGAGTCACCTAGTGCAG,12700 fluorescence intensity (a.u.)
2,CATTTCCATTCTTCAGAAGTTCACCCTTCAATCCCTTTTTCGGAGTCACCTAGTGCAG,8600 fluorescence intensity (a.u.)
3,ACATATACGTAATATTCGTGGGCACTAGGATTTGAAACCTCGGAGTCACCTAGTGCAG,8660 fluorescence intensity (a.u.)
4,TCCACTAGAAGTATACATCATGTCATTAACATCCATTTTCCGGAGTCACCTAGTGCAG,9870 fluorescence intensity (a.u.)
5,ATGCTCCTATTTATGTGTTCCATTCCATTTTCTTTAGGAGCGGAGTCACCTAGTGCAG,10300 fluorescence intensity (a.u.)
6,GCTACCGCACACATACTGCCATTTGGCTAACAATTTTATCCGGAGTCACCTAGTGCAG,8490 fluorescence intensity (a.u.)
7,GAGGAACAAGTGGGTGGGTCCAGTGGGATGTGCATGTGGGCGGAGTCACCTAGTGCAG,9220 fluorescence intensity (a.u.)
8,CATTTTGTCTATGCATTCTCTTCTGTTTCTATCTGTTGATCGGAGTCACCTAGTGCAG,9630 fluorescence intensity (a.u.)
9,TTACATCAAAACTTTCTTACACACACAAACTTTCAACTTTCGGAGTCACCTAGTGCAG,8550 fluorescence intensity (a.u.)
10,GTTCTAGAATGTCCTGTTTAACATCACACTCGATTGGACACGGAGTCACCTAGTGCAG,9410 fluorescence intensity (a.u.)
11,ATGTGCTTACGGTTGACTTATATAGTCTGCTATCGTACCTCGGAGTCACCTAGTGCAG,10600 fluorescence intensity (a.u.)
12,ACAGATATTTTCGCTTTTCAACCAGCGTTGACTCGTCGTTCGGAGTCACCTAGTGCAG,13400 fluorescence intensity (a.u.)
13,TCTGCCTGTACCACTAATCTTCAAGCGAGCAAAGGCAAACCGGAGTCACCTAGTGCAG,8220 fluorescence intensity (a.u.)
14,TGGCGAGGAGGTGGTGGTGGTTGTGGTGGGTGCGGCCATGCGGAGTCACCTAGTGCAG,12100 fluorescence intensity (a.u.)
15,ATGCCGATGCCCATGCTTCATTTCTCAAGTTCTTTAATATCGGAGTCACCTAGTGCAG,9120 fluorescence intensity (a.u.)
16,TACTACCTCCGTTTTTAATAGATGACGCCGTTGACTTTTTCGGAGTCACCTAGTGCAG,23700 fluorescence intensity (a.u.)
17,TCCCAACCGCCCGCCCGCGCGCCGCCCCTTCCTGCCGCCCCGGAGTCACCTAGTGCAG,8080 fluorescence intensity (a.u.)
18,GGGCAGTTCAGTTTTCTTTTGGTTTATATATTCCTACTAGCGGAGTCACCTAGTGCAG,10100 fluorescence intensity (a.u.)
19,TGTCTAGTTAGCTGAATTCATCTCGATCCTTTTATTAATTCGGAGTCACCTAGTGCAG,8820 fluorescence intensity (a.u.)
20,ACCACCCGCGCGACCTGTGCTCGCGTCTTTTTGGCGCCGCCGGAGTCACCTAGTGCAG,12300 fluorescence intensity (a.u.)
21,GGTAGCGGTGTGTGGAGGAGAGCATTGGCAGTTAGAGGGTCGGAGTCACCTAGTGCAG,9820 fluorescence intensity (a.u.)
22,TGGTTGTTGAGGTTTATATAAGTGTTCGACCGGTATCGCTCGGAGTCACCTAGTGCAG,8050 fluorescence intensity (a.u.)
23,CAAGACCCTGATAAATTGGTTGCTCTCGTCTCTTCTTGCTCGGAGTCACCTAGTGCAG,8030 fluorescence intensity (a.u.)

# Fetched one by one from the entries so far:
row,Sequence,binding signal
11,ATGTGCTTACGGTTGACTTATATAGTCTGCTATCGTACCTCGGAGTCACCTAGTGCAG,10600 fluorescence intensity (a.u.)
15,ATGCCGATGCCCATGCTTCATTTCTCAAGTTCTTTAATATCGGAGTCACCTAGTGCAG,9120 fluorescence intensity (a.u.)
